Measured values from the supplement of paper PMC12067093, “Discovery and optimisation of a covalent ligand for TRIM25 and its application to targeted protein ubiquitination” (Chemical Science, 2025).
This is one part of the list.

Chains of the proteins cited; added tags and fusions are not shown. Lines headed by an entry give the natural chain unless they say otherwise; changes in a name come on top.
UniProt Q8WV99: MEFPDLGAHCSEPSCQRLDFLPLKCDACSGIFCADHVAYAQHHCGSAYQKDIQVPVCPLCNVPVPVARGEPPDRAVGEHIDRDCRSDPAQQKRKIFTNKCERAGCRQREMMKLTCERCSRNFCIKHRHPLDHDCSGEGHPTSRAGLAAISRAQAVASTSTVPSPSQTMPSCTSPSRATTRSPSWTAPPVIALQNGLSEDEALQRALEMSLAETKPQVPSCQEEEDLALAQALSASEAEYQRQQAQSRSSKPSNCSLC
UniProt P18887, whole entry, looked up: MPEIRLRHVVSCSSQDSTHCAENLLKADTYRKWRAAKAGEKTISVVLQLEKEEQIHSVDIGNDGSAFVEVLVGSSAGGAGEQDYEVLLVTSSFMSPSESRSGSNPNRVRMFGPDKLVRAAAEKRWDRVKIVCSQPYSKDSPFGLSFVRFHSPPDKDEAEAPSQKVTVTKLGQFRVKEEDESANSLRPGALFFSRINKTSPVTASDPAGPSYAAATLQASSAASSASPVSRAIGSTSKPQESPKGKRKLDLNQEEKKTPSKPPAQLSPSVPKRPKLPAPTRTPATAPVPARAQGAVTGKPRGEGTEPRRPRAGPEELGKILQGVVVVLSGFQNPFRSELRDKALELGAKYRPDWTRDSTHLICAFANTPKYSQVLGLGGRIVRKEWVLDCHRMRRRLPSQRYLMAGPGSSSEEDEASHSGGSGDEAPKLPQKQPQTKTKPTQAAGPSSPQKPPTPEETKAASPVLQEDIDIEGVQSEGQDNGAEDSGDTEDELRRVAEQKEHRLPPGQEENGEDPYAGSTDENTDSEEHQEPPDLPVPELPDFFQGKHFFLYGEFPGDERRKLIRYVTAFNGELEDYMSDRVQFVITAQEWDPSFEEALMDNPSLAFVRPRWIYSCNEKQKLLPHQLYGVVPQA
UniProt Q8N6M9: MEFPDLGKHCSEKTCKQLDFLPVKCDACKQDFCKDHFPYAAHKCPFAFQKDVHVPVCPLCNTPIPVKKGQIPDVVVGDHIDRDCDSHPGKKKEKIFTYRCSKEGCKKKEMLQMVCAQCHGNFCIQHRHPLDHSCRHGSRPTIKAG
UniProt Q96QU8: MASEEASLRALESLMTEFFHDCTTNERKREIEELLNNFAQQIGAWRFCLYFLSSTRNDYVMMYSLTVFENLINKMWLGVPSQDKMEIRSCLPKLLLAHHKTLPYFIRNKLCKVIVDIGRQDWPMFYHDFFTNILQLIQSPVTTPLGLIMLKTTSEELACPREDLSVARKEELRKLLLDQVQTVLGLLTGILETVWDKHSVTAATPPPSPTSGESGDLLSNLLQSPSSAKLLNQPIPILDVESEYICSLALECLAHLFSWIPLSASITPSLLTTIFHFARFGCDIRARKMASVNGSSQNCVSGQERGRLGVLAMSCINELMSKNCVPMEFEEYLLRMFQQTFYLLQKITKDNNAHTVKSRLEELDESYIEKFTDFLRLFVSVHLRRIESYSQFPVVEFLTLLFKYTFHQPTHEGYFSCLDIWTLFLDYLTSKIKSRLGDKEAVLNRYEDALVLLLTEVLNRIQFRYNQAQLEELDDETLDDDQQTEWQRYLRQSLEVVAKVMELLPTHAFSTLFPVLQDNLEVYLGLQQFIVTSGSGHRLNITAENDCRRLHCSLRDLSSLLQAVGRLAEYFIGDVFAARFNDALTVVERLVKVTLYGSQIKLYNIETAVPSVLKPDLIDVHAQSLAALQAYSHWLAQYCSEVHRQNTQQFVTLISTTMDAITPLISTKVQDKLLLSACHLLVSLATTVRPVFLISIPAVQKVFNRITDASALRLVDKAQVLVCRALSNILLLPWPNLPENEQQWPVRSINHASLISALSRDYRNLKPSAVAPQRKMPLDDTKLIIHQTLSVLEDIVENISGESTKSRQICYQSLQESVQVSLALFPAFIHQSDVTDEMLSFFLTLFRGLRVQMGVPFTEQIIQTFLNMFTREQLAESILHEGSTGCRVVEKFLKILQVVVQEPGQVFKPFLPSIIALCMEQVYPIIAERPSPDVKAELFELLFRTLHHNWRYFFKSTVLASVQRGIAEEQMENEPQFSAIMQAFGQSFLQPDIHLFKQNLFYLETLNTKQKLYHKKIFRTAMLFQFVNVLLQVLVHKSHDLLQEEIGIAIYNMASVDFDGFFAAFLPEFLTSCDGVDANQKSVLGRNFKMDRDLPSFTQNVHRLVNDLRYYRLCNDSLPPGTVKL
UniProt O43829: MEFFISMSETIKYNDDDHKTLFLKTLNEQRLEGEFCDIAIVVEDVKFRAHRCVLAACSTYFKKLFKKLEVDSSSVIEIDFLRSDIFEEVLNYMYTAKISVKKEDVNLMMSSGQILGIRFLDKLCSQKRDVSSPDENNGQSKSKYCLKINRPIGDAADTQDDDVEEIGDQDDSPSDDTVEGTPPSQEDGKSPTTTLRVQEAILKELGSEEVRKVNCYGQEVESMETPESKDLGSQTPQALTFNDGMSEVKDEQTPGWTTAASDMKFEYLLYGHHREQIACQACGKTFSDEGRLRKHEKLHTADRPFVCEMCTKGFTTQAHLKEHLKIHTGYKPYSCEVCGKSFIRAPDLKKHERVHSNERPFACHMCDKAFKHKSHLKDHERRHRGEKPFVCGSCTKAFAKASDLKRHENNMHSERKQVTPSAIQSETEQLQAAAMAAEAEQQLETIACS
UniProt Q8TCF1: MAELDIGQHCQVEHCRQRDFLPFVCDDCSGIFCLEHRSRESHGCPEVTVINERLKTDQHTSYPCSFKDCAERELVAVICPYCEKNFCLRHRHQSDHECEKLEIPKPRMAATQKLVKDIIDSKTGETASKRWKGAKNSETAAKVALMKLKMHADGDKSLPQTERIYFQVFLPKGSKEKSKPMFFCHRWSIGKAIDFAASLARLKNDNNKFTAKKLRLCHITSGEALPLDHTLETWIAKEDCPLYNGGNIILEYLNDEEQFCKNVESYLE
UniProt P07947, whole entry, looked up: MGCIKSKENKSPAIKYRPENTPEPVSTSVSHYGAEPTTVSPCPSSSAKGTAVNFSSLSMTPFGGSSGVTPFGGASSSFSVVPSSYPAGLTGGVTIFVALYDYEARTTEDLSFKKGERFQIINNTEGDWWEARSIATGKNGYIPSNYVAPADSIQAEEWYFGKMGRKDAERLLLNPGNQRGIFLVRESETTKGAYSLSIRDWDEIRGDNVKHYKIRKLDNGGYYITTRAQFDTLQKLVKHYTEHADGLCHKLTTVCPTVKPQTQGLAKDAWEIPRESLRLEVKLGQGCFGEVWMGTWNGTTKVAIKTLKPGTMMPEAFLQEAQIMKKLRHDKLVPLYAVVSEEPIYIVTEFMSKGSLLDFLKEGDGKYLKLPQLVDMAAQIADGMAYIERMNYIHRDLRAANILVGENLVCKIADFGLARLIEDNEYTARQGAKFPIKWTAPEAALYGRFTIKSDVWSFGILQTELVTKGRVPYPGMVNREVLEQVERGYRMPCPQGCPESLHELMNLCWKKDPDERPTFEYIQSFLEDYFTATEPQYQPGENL
UniProt Q8WU90: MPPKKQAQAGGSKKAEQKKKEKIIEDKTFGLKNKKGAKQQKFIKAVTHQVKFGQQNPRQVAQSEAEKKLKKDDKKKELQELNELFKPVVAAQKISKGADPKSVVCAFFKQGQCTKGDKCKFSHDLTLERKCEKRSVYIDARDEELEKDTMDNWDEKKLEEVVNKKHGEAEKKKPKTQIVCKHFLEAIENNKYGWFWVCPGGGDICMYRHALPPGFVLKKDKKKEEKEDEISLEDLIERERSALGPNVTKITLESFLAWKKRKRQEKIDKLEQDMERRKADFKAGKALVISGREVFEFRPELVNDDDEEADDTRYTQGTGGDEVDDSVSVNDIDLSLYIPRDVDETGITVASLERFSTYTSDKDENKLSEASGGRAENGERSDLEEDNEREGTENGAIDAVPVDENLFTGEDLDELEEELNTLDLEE
UniProt Q96TA2: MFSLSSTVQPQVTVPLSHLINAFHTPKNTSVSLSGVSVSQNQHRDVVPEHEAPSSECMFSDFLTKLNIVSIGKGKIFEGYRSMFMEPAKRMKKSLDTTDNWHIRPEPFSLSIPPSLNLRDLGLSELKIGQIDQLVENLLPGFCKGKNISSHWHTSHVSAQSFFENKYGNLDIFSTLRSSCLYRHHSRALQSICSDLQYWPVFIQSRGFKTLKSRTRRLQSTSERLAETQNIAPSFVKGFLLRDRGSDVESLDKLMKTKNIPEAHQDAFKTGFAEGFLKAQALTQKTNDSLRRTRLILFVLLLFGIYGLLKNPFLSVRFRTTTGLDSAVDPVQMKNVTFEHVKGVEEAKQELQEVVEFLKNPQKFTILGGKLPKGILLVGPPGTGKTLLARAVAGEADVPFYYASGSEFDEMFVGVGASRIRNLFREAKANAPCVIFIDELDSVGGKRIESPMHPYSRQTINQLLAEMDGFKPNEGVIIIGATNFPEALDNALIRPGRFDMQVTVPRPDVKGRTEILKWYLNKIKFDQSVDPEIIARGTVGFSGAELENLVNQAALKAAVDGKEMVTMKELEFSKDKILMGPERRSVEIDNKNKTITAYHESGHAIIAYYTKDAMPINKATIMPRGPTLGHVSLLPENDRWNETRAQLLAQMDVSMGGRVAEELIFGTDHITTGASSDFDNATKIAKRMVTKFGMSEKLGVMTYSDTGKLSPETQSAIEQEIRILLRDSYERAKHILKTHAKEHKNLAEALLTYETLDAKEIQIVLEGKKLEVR
UniProt Q86T24: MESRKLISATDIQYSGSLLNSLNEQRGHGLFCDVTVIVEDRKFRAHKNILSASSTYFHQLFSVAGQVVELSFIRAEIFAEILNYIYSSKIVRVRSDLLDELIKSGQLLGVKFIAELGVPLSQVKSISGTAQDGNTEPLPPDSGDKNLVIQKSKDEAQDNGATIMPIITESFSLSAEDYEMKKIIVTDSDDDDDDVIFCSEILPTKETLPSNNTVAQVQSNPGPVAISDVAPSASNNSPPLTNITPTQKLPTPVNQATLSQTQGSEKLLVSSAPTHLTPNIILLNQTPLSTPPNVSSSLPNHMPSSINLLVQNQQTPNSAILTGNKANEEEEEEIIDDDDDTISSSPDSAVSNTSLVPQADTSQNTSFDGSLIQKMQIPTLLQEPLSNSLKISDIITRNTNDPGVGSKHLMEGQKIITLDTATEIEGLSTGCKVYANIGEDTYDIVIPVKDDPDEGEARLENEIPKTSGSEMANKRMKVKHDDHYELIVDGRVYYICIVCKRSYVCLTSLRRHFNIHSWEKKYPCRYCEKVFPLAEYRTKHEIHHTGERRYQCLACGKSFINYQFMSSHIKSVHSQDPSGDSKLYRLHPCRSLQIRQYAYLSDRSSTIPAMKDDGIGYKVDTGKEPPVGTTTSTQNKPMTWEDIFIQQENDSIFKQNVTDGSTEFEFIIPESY
UniProt Q9UIA9: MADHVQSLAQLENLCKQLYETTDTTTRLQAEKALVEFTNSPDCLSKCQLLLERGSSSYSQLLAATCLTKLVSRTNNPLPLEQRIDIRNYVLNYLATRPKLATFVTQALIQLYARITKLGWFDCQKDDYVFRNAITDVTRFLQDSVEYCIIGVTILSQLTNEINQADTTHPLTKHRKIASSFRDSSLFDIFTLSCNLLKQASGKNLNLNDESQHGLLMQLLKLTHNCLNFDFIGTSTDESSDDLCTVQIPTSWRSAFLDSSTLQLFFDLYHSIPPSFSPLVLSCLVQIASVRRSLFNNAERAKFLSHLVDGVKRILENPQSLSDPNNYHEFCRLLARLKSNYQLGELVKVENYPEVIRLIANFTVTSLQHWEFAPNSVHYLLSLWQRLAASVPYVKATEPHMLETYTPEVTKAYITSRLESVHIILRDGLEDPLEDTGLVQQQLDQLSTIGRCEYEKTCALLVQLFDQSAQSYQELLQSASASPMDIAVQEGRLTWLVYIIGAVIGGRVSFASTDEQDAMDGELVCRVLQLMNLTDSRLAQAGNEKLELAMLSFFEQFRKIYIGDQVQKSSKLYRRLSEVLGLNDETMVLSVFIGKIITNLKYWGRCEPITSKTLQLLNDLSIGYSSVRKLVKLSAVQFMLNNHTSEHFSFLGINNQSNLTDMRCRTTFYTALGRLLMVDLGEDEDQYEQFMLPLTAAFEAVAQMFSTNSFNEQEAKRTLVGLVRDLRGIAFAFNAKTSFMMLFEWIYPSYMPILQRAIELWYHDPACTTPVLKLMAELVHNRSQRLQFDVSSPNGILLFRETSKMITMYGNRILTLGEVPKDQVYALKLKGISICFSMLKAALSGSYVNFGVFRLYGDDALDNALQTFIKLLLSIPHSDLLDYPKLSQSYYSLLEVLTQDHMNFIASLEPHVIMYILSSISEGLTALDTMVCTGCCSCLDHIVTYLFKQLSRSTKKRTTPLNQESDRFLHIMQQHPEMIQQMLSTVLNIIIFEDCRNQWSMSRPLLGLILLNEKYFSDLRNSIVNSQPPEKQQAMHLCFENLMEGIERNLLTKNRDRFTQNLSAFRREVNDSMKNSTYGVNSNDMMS

These targets were tested with Cc1cc(ccc1-c1ccccc1)C(=O)N1CCCN(CC1)C(=O)CCl [compound 10] (assay: probe-labelled cysteine peptide fold change vs DMSO (competition) (log2 fold change); higher = less target engagement (more negative = stronger competition)). Conditions: 10 µM; THP-1; incubation time: 4 h.
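Note: competitive profiling in live THP-1 cells: cysteine peptides tagged with an iodoacetamide desthiobiotin (IA-DTB) probe, intensity after compound treatment relative to DMSO-treated cells.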

| Target | probe-labelled cysteine peptide fold change |
| --- | --- |
| ZC3HC1_Q86WB0_190_FQSLCHLDLQLPSLRPEDLK (UniProt Q86WB0) | 0.314 |
| ZC3H10_Q96K80_140_EEVPICR (UniProt Q96K80) | -0.106 |
| YTHDC2_Q9H6S0_777_MPLQELCLHTK (UniProt Q9H6S0) | -0.0301 |
| ZFAND2B_Q8WV99_84_AVGEHIDRDCR (UniProt Q8WV99) | -0.0906 |
| XPO5_Q9HAV4_847_FFSTLYENCFHILGK (UniProt Q9HAV4) | 0.0606 |
| XRCC1_P18887_615_WIYSCNEK (UniProt P18887) | 0.0968 |
| ZC3HAV1L_Q96H79_108_GECQACDQLHFCR (UniProt Q96H79) | -0.0102 |
| ZFAND2A_Q8N6M9_84_GQIPDVVVGDHIDRDCDSHPGK (UniProt Q8N6M9) | 1.7 |
| ZC3HAV1L_Q96H79_169_ILLLQNDPCLLPEVCLLYNK (UniProt Q96H79) | 0.312 |
| YTHDF2_Q9Y5A9_433_YNIWCSTEHGNK (UniProt Q9Y5A9) | 0.0838 |
| YJU2_Q9BW85_83_CLAEITFK (UniProt Q9BW85) | -0.0359 |
| XPO4_Q9C0E2_1149_SLEEFMANVGGLLCVK (UniProt Q9C0E2) | 0.366 |
| XPO6_Q96QU8_723_AQVLVCR (UniProt Q96QU8) | 0.0153 |
| ZBTB14_O43829_215_VNCYGQEVESMETPESK (UniProt O43829) | -0.181 |
| ZBTB43_O43298_450_HVTSCTK (UniProt O43298) | -0.0463 |
| ZFAND1_Q8TCF1_28_QRDFLPFVCDDCSGIFCLEHR (UniProt Q8TCF1) | 0.0318 |
| ZC3H11A_O75152_209_QGECLNFGIK (UniProt O75152) | -0.0872 |
| YES1_P07947_255_LTTVCPTVKPQTQGLAK (UniProt P07947) | -0.195 |
| XPOT_O43592_56_FFCFQVLEHQVK (UniProt O43592) | 0.231 |
| ZC3H15_Q8WU90_105_SVVCAFFK (UniProt Q8WU90) | -0.0248 |

| Target | probe-labelled cysteine peptide fold change |
| --- | --- |
| YME1L1_Q96TA2_433_ANAPCVIFIDELDSVGGK (UniProt Q96TA2) | 0.0564 |
| XPO5_Q9HAV4_605_HACSSIIK (UniProt Q9HAV4) | 0.0117 |
| XRN2_Q9H0D6_21_KYPSIIVNCVEEKPK (UniProt Q9H0D6) | -0.134 |
| XRN2_Q9H0D6_266_PCGLCNQFGHEVK (UniProt Q9H0D6) | 0.0877 |
| XRN2_Q9H0D6_715_HHPLHDFILELYQTGSTEPVEVPPELCHGIQGK (UniProt Q9H0D6) | -0.0366 |
| ZC3H11A_O75152_636_CAAQTLEK (UniProt O75152) | -0.182 |
| ZFAND1_Q8TCF1_64_LKTDQHTSYPCSFK (UniProt Q8TCF1) | -0.0542 |
| ZFAND1_Q8TCF1_28+33_DFLPFVCDDCSGIFCLEHR (UniProt Q8TCF1) | -0.295 |
| ZER1_Q7Z7L7_337_RPLQFLGLFENSLCR (UniProt Q7Z7L7) | -0.124 |
| ZC3H12D_A2A288_266_CTYGIK (UniProt A2A288) | 0.0498 |
| ZC3H7A_Q8IWR0_921_YMNGTCPEGNSCK (UniProt Q8IWR0) | 0.00658 |
| ZC3H10_Q96K80_79_NEFIFCHDFQNK (UniProt Q96K80) | -0.0348 |
| ZBTB44_Q8NCP5_272_MADYVTCESTK (UniProt Q8NCP5) | -0.268 |
| ZFC3H1_O60293_1864_FCSVMPANSGLALR (UniProt O60293) | -0.0336 |
| XRN2_Q9H0D6_276_DCEGLPR (UniProt Q9H0D6) | 0.0921 |
| ZBTB33_Q86T24_32_GHGLFCDVTVIVEDR (UniProt Q86T24) | 0.122 |
| ZC3HAV1_Q7Z2W4_721_TSSVSLTATFRPQEDFCFLSSK (UniProt Q7Z2W4) | -0.024 |
| XPOT_O43592_900_QTFDLADAQTVLALSECAVTLK (UniProt O43592) | 0.288 |
| XPO7_Q9UIA9_331_ILENPQSLSDPNNYHEFCR (UniProt Q9UIA9) | 0.0419 |
| ZC3HAV1_Q7Z2W4_174_LHICDHFTR (UniProt Q7Z2W4) | -0.0265 |

Same assay, conditions: 50 µM; THP-1; incubation time: 4 h

| Target | probe-labelled cysteine peptide fold change |
| --- | --- |
| ZC3HC1_Q86WB0_190_FQSLCHLDLQLPSLRPEDLK (UniProt Q86WB0) | 0.324 |
| ZC3H10_Q96K80_140_EEVPICR (UniProt Q96K80) | 0.152 |
| YTHDC2_Q9H6S0_777_MPLQELCLHTK (UniProt Q9H6S0) | -0.184 |
| ZFAND2B_Q8WV99_84_AVGEHIDRDCR (UniProt Q8WV99) | -0.195 |
| XPO5_Q9HAV4_847_FFSTLYENCFHILGK (UniProt Q9HAV4) | 0.469 |
| XRCC1_P18887_615_WIYSCNEK (UniProt P18887) | -0.0466 |
| ZC3HAV1L_Q96H79_108_GECQACDQLHFCR (UniProt Q96H79) | 0.0578 |
| ZFAND2A_Q8N6M9_84_GQIPDVVVGDHIDRDCDSHPGK (UniProt Q8N6M9) | 3.88 |
| ZC3HAV1L_Q96H79_169_ILLLQNDPCLLPEVCLLYNK (UniProt Q96H79) | 0.251 |
| YTHDF2_Q9Y5A9_433_YNIWCSTEHGNK (UniProt Q9Y5A9) | 0.118 |
| YJU2_Q9BW85_83_CLAEITFK (UniProt Q9BW85) | -0.0845 |
| XPO4_Q9C0E2_1149_SLEEFMANVGGLLCVK (UniProt Q9C0E2) | -0.106 |
| XPO6_Q96QU8_723_AQVLVCR (UniProt Q96QU8) | 0.0471 |
| ZBTB14_O43829_215_VNCYGQEVESMETPESK (UniProt O43829) | -0.177 |
| ZBTB43_O43298_450_HVTSCTK (UniProt O43298) | -0.0117 |
| ZFAND1_Q8TCF1_28_QRDFLPFVCDDCSGIFCLEHR (UniProt Q8TCF1) | -0.129 |
| ZC3H11A_O75152_209_QGECLNFGIK (UniProt O75152) | -0.122 |
| YES1_P07947_255_LTTVCPTVKPQTQGLAK (UniProt P07947) | -0.29 |
| XPOT_O43592_56_FFCFQVLEHQVK (UniProt O43592) | 0.376 |
| ZC3H15_Q8WU90_105_SVVCAFFK (UniProt Q8WU90) | -0.12 |

| Target | probe-labelled cysteine peptide fold change |
| --- | --- |
| YME1L1_Q96TA2_433_ANAPCVIFIDELDSVGGK (UniProt Q96TA2) | 0.26 |
| XPO5_Q9HAV4_605_HACSSIIK (UniProt Q9HAV4) | -0.0217 |
| XRN2_Q9H0D6_21_KYPSIIVNCVEEKPK (UniProt Q9H0D6) | 0.0446 |
| XRN2_Q9H0D6_266_PCGLCNQFGHEVK (UniProt Q9H0D6) | 0.168 |
| XRN2_Q9H0D6_715_HHPLHDFILELYQTGSTEPVEVPPELCHGIQGK (UniProt Q9H0D6) | 0.0175 |
| ZC3H11A_O75152_636_CAAQTLEK (UniProt O75152) | -0.369 |
| ZFAND1_Q8TCF1_64_LKTDQHTSYPCSFK (UniProt Q8TCF1) | -0.645 |
| ZFAND1_Q8TCF1_28+33_DFLPFVCDDCSGIFCLEHR (UniProt Q8TCF1) | -0.0113 |
| ZER1_Q7Z7L7_337_RPLQFLGLFENSLCR (UniProt Q7Z7L7) | -0.0583 |
| ZC3H12D_A2A288_266_CTYGIK (UniProt A2A288) | -0.00714 |
| ZC3H7A_Q8IWR0_921_YMNGTCPEGNSCK (UniProt Q8IWR0) | -0.194 |
| ZC3H10_Q96K80_79_NEFIFCHDFQNK (UniProt Q96K80) | 0.18 |
| ZBTB44_Q8NCP5_272_MADYVTCESTK (UniProt Q8NCP5) | -0.124 |
| ZFC3H1_O60293_1864_FCSVMPANSGLALR (UniProt O60293) | -0.0942 |
| XRN2_Q9H0D6_276_DCEGLPR (UniProt Q9H0D6) | 0.174 |
| ZBTB33_Q86T24_32_GHGLFCDVTVIVEDR (UniProt Q86T24) | 0.202 |
| ZC3HAV1_Q7Z2W4_721_TSSVSLTATFRPQEDFCFLSSK (UniProt Q7Z2W4) | -0.396 |
| XPOT_O43592_900_QTFDLADAQTVLALSECAVTLK (UniProt O43592) | 0.193 |
| XPO7_Q9UIA9_331_ILENPQSLSDPNNYHEFCR (UniProt Q9UIA9) | 0.327 |
| ZC3HAV1_Q7Z2W4_174_LHICDHFTR (UniProt Q7Z2W4) | -0.382 |
